PubChem BioAssay AID1224828, NIAID | 2016
Shown is a random part of about 17,000 deposited reagents. 762 of all reagents (4.5%) count as active. 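Active calls include both raised and lowered p65 entry, mostly lowered; wells with fewer than 50 cells lack a z-score.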 Raw values are not corrected between plates. Unmarked entries are inactive. Reagent sequences are not shown.

Purpose: 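Regulators linking TLR4 signalling to p65 nuclear translocation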 (primary screen)
System: mouse RAW264.7 G9 macrophage reporter cells (GFP-p65, Tnf promoter-mCherry)
Knock-down reagent: siRNA pool against mouse genes, 100 nM
Time to read-out: 2 days siRNA transfection, then 40 min LPS before fixation
Challenge: LPS (Salmonella minnesota R595) at 10 ng/ml
Measured: 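Microscopy ratio of nuclear to perinuclear-ring GFP-p65 signal, scaled to the plate median; gene score is the average of two replicate robust z-scores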
Reading the numbers: p65 translocation robust z-score: higher = more nuclear NF-kappaB p65 after LPS than the plate median; nuclear/cytoplasmic p65 ratio: higher = more nuclear NF-kappaB p65
Call rule: 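Active if robust z is above 3.3 (negative regulators) or below -1.56, the Tlr4 control median (positive regulators); activity score 50 or more; control wells not called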
Meaning of the calls: active = hit (p65 shift raised or lowered); inactive = no clear change

{"gene knocked down": "Clps (colipase, pancreatic)", "p65 translocation robust z-score": 0.07, "nuclear/cytoplasmic p65 ratio, rep 1": 1.58, "nuclear/cytoplasmic p65 ratio, rep 2": 1.82, "low cell count flag": "enough cells to score"}
{"gene knocked down": "Prdx4 (peroxiredoxin 4)", "p65 translocation robust z-score": 0.88, "nuclear/cytoplasmic p65 ratio, rep 1": 1.55, "nuclear/cytoplasmic p65 ratio, rep 2": 1.58, "low cell count flag": "enough cells to score"}
{"gene knocked down": "Psg23 (pregnancy-specific beta-1-glycoprotein 23)", "p65 translocation robust z-score": 0.94, "nuclear/cytoplasmic p65 ratio, rep 1": 1.46, "nuclear/cytoplasmic p65 ratio, rep 2": 1.35, "low cell count flag": "enough cells to score"}
{"gene knocked down": "Stambpl1 (STAM binding protein like 1)", "p65 translocation robust z-score": -0.61, "nuclear/cytoplasmic p65 ratio, rep 1": 1.47, "nuclear/cytoplasmic p65 ratio, rep 2": 1.57, "low cell count flag": "enough cells to score"}
{"gene knocked down": "Kcnj4 (potassium inwardly-rectifying channel, subfamily J, member 4)", "p65 translocation robust z-score": 0.52, "nuclear/cytoplasmic p65 ratio, rep 1": 1.69, "nuclear/cytoplasmic p65 ratio, rep 2": 1.44, "low cell count flag": "enough cells to score"}
{"gene knocked down": "Lamtor3 (late endosomal/lysosomal adaptor, MAPK and MTOR activator 3)", "p65 translocation robust z-score": 1.01, "nuclear/cytoplasmic p65 ratio, rep 1": 1.74, "nuclear/cytoplasmic p65 ratio, rep 2": 1.5, "low cell count flag": "enough cells to score"}
{"gene knocked down": "Nr1h3 (nuclear receptor subfamily 1, group H, member 3)", "nuclear/cytoplasmic p65 ratio, rep 1": 1.2, "nuclear/cytoplasmic p65 ratio, rep 2": 1.12, "low cell count flag": "fewer than 50 cells per well; well left out of scoring"}
{"gene knocked down": "Srpk3 (serine/arginine-rich protein specific kinase 3)", "p65 translocation robust z-score": 2.29, "nuclear/cytoplasmic p65 ratio, rep 1": 2.13, "nuclear/cytoplasmic p65 ratio, rep 2": 1.61, "low cell count flag": "enough cells to score"}
{"gene knocked down": "Tapbpl (TAP binding protein-like)", "nuclear/cytoplasmic p65 ratio, rep 1": 1.37, "nuclear/cytoplasmic p65 ratio, rep 2": 1.18, "low cell count flag": "fewer than 50 cells per well; well left out of scoring"}
{"gene knocked down": "Angptl1 (angiopoietin-like 1)", "p65 translocation robust z-score": -0.02, "nuclear/cytoplasmic p65 ratio, rep 1": 1.62, "nuclear/cytoplasmic p65 ratio, rep 2": 1.61, "low cell count flag": "enough cells to score"}
{"gene knocked down": "Utp11 (UTP11 small subunit processome component)", "p65 translocation robust z-score": -1.43, "nuclear/cytoplasmic p65 ratio, rep 1": 1.25, "nuclear/cytoplasmic p65 ratio, rep 2": 1.24, "low cell count flag": "enough cells to score"}
{"gene knocked down": "Gcnt3 (glucosaminyl (N-acetyl) transferase 3, mucin type)", "p65 translocation robust z-score": -0.58, "nuclear/cytoplasmic p65 ratio, rep 1": 1.47, "nuclear/cytoplasmic p65 ratio, rep 2": 1.42, "low cell count flag": "enough cells to score"}

Records listed so far whose target name begins with S or s:
{"gene knocked down": "Stambpl1 (STAM binding protein like 1)", "p65 translocation robust z-score": -0.61, "nuclear/cytoplasmic p65 ratio, rep 1": 1.47, "nuclear/cytoplasmic p65 ratio, rep 2": 1.57, "low cell count flag": "enough cells to score"}
{"gene knocked down": "Srpk3 (serine/arginine-rich protein specific kinase 3)", "p65 translocation robust z-score": 2.29, "nuclear/cytoplasmic p65 ratio, rep 1": 2.13, "nuclear/cytoplasmic p65 ratio, rep 2": 1.61, "low cell count flag": "enough cells to score"}
